Source: PubChem BioAssay AID1224828 (NIAID, 2016)
Assay: 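Find genes required for NF-kappaB p65 moving into the nucleus after LPS in mouse macrophages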 (primary screen). Cell system: mouse RAW264.7 G9 macrophage reporter cells (GFP-p65, Tnf promoter-mCherry). Reagent: siRNA pool against mouse genes, 100 nM. Duration: 2 days siRNA transfection, then 40 min LPS before fixation. Challenge: LPS (Salmonella minnesota R595) at 10 ng/ml. Measured: 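Microscopy ratio of nuclear to perinuclear-ring GFP-p65 signal, scaled to the plate median; gene score is the average of two replicate robust z-scores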. Reading the numbers: p65 translocation robust z-score: higher = more nuclear NF-kappaB p65 after LPS than the plate median; nuclear/cytoplasmic p65 ratio: higher = more nuclear NF-kappaB p65. Active means: 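Called active when z exceeds 3.3 or falls under -1.56 (median of Tlr4 controls), giving activity score of at least 50; no calls for control wells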. Calls: active = hit (p65 shift raised or lowered); inactive = no clear change.
Shown is an unselected part of about 17,000 reagents tested. In the full data, 762 (4.5%) were called active. 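Active calls include both raised and lowered p65 entry, mostly lowered; wells with fewer than 50 cells lack a z-score.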 The raw values are shown without normalisation. Entries without a mark were called inactive.

| gene symbol | p65 translocation robust z-score | nuclear/cytoplasmic p65 ratio, rep 1 | nuclear/cytoplasmic p65 ratio, rep 2 | low cell count flag |
| --- | --- | --- | --- | --- |
| Apc | -0.68 | 1.52 | 1.52 | enough cells to score |
| Dync1li1 | – | 1.3 | 1.2 | fewer than 50 cells per well; well left out of scoring |
| Zfp64 | -0.98 | 1.41 | 1.33 | enough cells to score |
| Retnlb | 1.34 | 1.62 | 1.35 | enough cells to score |
| Mcoln2 | -2.31 (active) | 1.35 | 1.21 | enough cells to score |
| Fmod | -0.09 | 1.42 | 1.38 | enough cells to score |
| Eci2 | – | 1.4 | 1.36 | fewer than 50 cells per well; well left out of scoring |
| Cyp2g1 | -0.84 | 1.44 | 1.66 | enough cells to score |
| Zfp938 | -2.27 (active) | 1.43 | 1.16 | enough cells to score |
| Dnaja3 | -1.77 (active) | 1.22 | 1.14 | enough cells to score |
| A530095I07Rik | – | 1.32 | 1.73 | fewer than 50 cells per well; well left out of scoring |
| Casp2 | -0.83 | 1.45 | 1.53 | enough cells to score |
| Lrrc26 | 0.47 | 1.68 | 1.89 | enough cells to score |
| Sav1 | -0.72 | 1.31 | 1.15 | enough cells to score |
| Kif15 | 0.51 | 1.48 | 1.5 | enough cells to score |
| Hnf1b | -0.13 | 1.55 | 1.45 | enough cells to score |
| Hsd17b12 | -0.85 | 1.34 | 1.25 | enough cells to score |
| Or2ak5 | -0.29 | 1.51 | 1.44 | enough cells to score |
| Tmem177 | – | 1.21 | 1.15 | fewer than 50 cells per well; well left out of scoring |
| Manf | -0.04 | 1.64 | 1.58 | enough cells to score |

Laid out differently: entries from further up
gene symbol | p65 translocation robust z-score | nuclear/cytoplasmic p65 ratio, rep 1 | nuclear/cytoplasmic p65 ratio, rep 2 | low cell count flag
Mcoln2 | -2.31 (active) | 1.35 | 1.21 | enough cells to score
Fmod | -0.09 | 1.42 | 1.38 | enough cells to score
Eci2 | – | 1.4 | 1.36 | fewer than 50 cells per well; well left out of scoring

Additional entries follow.
| gene symbol | p65 translocation robust z-score | nuclear/cytoplasmic p65 ratio, rep 1 | nuclear/cytoplasmic p65 ratio, rep 2 | low cell count flag |
| --- | --- | --- | --- | --- |
| Fanca | 0.51 | 1.61 | 1.37 | enough cells to score |
| Mettl21a | – | 1.36 | 1.39 | fewer than 50 cells per well; well left out of scoring |
| Mrpl45 | 1.23 | 2 | 1.76 | enough cells to score |
| Zng1 | 0.9 | 1.76 | 1.94 | enough cells to score |
| Zranb1 | -1.97 (active) | 1.08 | 1.29 | enough cells to score |
| Parp9 | 0.27 | 1.67 | 1.83 | enough cells to score |
| Dctn3 | -0.14 | 1.49 | 1.33 | enough cells to score |
| Rab5a | 1.53 | 1.77 | 1.72 | enough cells to score |
| Ndufa12 | -1.45 | 1.32 | 1.16 | enough cells to score |
| Odf2 | 1.77 | 1.9 | 1.86 | enough cells to score |
| Stx19 | 2.97 | 1.85 | 1.85 | enough cells to score |
| Vmn1r85 | – | 1.54 | 1.22 | fewer than 50 cells per well; well left out of scoring |
| Il11ra1 | -0.25 | 1.4 | 1.36 | enough cells to score |
| Pepd | 0.77 | 1.6 | 1.47 | enough cells to score |
| She | 0.22 | 1.43 | 1.6 | enough cells to score |
| Ift74 | 0.25 | 1.67 | 1.78 | enough cells to score |
| Tmbim6 | -0.45 | 1.45 | 1.37 | enough cells to score |
| Sall1 | -0.52 | 1.27 | 1.61 | enough cells to score |
| Cyp26a1 | -0.03 | 1.53 | 1.82 | enough cells to score |
| Morf4l1 | -0.79 | 1.71 | 1.42 | enough cells to score |
